Values of other authors as cited in patent US6780984B2, “Method for prognosing cancer and the proteins involved” (Northwestern University, priority 2000, dated 2004).

Conditions: cited from earlier work

B1: calreticulin: multi-functional Ca++ binding protein of the endoplasmic reticulum, human SEQ ID NO:36; overexpressed from pcDNA3.1/crt (protein)
chain: MLLSVPLLLGLLGLAVAEPAVYFKEQFLDGDGWTSRWIESKHKSDFGKFVLSSGKFYGDEEKDKGLQTSQDARFYALSASFEPFSNKGQTLVVQFTVKHEQNIDCGGGYVKLFPNSLDQTDMHGDSEYNIMFGPDICGPGTKKVHVIFNYKGKNVLINKDIRCKDDEFTHLYTLIVRPDNTYEVKIDNSQVESGSLEDDWDFLPPKKIKDPDASKPEDWDERAKIDDPTDSKPEDWDKPEHIPDPDAKKPEDWDEEMDGEWEPPVIQNPEYKGEWKPRQIDNPDYKGTWIHPEIDNPEYSPDPSIYAYDNFGVLGLDLWQVKSGTIFDNFLITNDEAYAEEFGNETWGVTKAAEKQMKDKQDEEQRLKEEEEDKKRKEEEEAEDKEDDEDKDEDEEDEEDKEEDEEEDVPGQAKDEL
Ca++ binding capacity, high capacity sites (C-Terminal Domain): approximately 25 mols Ca^((+))((+))/mol protein
Ca++ binding capacity, low capacity site (Repeat A of the Proline-rich Domain): 1 mol Ca^((+))((+))/mol of protein
